# Source: PubChem BioAssay AID1487 (National Center for Advancing Translational Sciences (NCATS), 2009)
# Several values for one entry are separate records, joined by “and”; a condition that tells them apart may be missing. Identical values can stand only once. Some of the results follow. These are further read-outs of the screen, such as a control signal, another cell line or another target. No call is given for them. Compounds called inactive in the main read-out are mostly missing here. Words in brackets tell the shape of the fitted curve; partial curves, single points and poor fits give uncertain potencies.
# Assay: qHTS Assay for Modulators of Lamin A Splicing
# Conditions: HeLa LMNA splicing GFP/RFP minigene ratio, 48 h
# Summary of the method: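 S3 HeLa stable clones carrying a lamin A-EGFP splicing minigene plus DsRed2 were seeded at 600 cells/well in Opti-MEM with 2% FBS, pin-dosed and incubated 48 h at 37°C. Acumen cytometry (488 nm) gave the GFP/RFP total-intensity ratio.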
# [1] = measured here: RFP viability control channel
# [2] = measured here: GFP splicing reporter channel
SMILES,AC50 [1],AC50 [2]
CC(C)c1ccc(/C=C/C(=O)NCCCc2ccccc2)cc1,"10 µM [rising, partial curve, poor fit]",
Cc1c(/C=N/Nc2ccc(F)cc2)c(O)n(C)c(=O)c1C#N,,"4.47 µM [falling, full curve, poor fit]"
O=[N+]([O-])c1cc2oc3c(c2c(C=NCc2ccccc2)c1O)CCCC3,,"6.31 µM [falling, single point]"
CC(C)N=C1NN=C(c2ccc(Cl)c(Cl)c2)CS1,,"0.794 µM [rising, full curve, poor fit]"
COc1cccc(-c2nnc(SCC(=O)Nc3cc(C)on3)o2)c1,"12.6 µM [rising, partial curve]","22.4 µM [rising, single point]"
CN(c1ccc(OCC(=O)Nc2nc(-c3ccccc3)cs2)cc1)S(=O)(=O)c1ccc(F)cc1,"12.6 µM [rising, partial curve]",
O=C(N/N=C/c1cc([N+](=O)[O-])ccc1O)C12CC3CC(CC(C3)C1)C2,"3.16 µM [falling, single point]",
CN1CCCCc2c1nc1ccccc1c2N (tested in a mixture with another compound),"5.62 µM [falling, single point]","5.62 µM [falling, single point]"
CCOC(=O)CN1N=C(/C=C/c2ccc(C(C)C)cc2)CCC1=O,"14.1 µM [falling, single point]",
CC(C)n1c(SCCCc2ccccc2)nc2c1c(=O)[nH]c(=O)n2C,"35.5 µM [rising, single point]",
Cc1ccc(NC(=O)/C(C#N)=C/c2ccc(C)s2)c(C)c1,"35.5 µM [falling, partial curve, poor fit]","35.5 µM [falling, single point]"
Fc1ccc(N/N=C/c2ccncc2)c(F)c1,"10 µM [falling, partial curve]","12.6 µM [falling, partial curve, poor fit]"
CC(=O)OC1c2c(ccc3ccc(=O)oc23)OC(C)(C)C1OC(=O)CC(C)C (stereo not given),"11.2 µM [rising, partial curve, poor fit]","15.8 µM [rising, single point] and 1.78 µM [rising, partial curve, poor fit]"
CCOC(=O)c1sc(NC(=O)c2ccc(OC(C)=O)cc2)nc1C,"2.51 µM [falling, partial curve, poor fit]",
COc1ccc(CNS(=O)(=O)NCc2ccc(C)cc2)cc1OC,"7.08 µM [falling, partial curve, poor fit]",
Cc1ccc(Cn2ncc3c(N4CCN(Cc5ccc(Cl)cc5)CC4)ncnc32)cc1,"3.55 µM [rising, full curve]","3.55 µM [rising, full curve]"
COc1ccccc1CNS(=O)(=O)c1ccc(-c2cnc(C3CC3)o2)cc1,"1.26 µM [rising, partial curve]",
Cc1cc2cc(CNC(=S)Nc3ccc(OC(F)F)cc3)ccc2n1C,"25.1 µM [rising, single point]",
COc1ccc(Cc2nc(-c3ccc(NC(=O)c4cccnc4)cc3)no2)cc1,"11.2 µM [rising, partial curve]",
O=C(c1cc(-c2cccs2)nc2ccccc12)N1CCN(c2ccccc2)CC1,"6.31 µM [rising, partial curve]",
C=CCn1c(N2CCOCC2)nc2c1c(=O)[nH]c(=O)n2C,,"0.316 µM [rising, partial curve]"
O=c1c2c3c(sc2nc2n1CCCCC2)CCCC3,"31.6 µM [rising, single point]","35.5 µM [rising, single point]"
CCc1ccc(C2=NN(CCC(=O)NCCc3ccc(OC)c(OC)c3)C(=O)CC2)cc1,"0.00708 µM [falling, full curve, poor fit]",
O/N=C\c1cccn1-c1nccs1,"5.62 µM [rising, single point]",
O=C(COC(=O)c1cc(=O)[nH]c2ccccc12)Nc1nc(-c2ccccc2)cs1,,"1.41 µM [rising, partial curve]"
Cc1cccc(NC(=O)COC(=O)c2cccc3c2C(=O)c2ccccc2C3=O)c1C,"35.5 µM [rising, single point]","25.1 µM [rising, single point]"
Nc1c(C(=O)Nc2ccc(S(=O)(=O)N3CCCC3)cc2)sc2nc3ccc(OC(F)(F)F)cc3cc12,"10 µM [falling, single point]","11.2 µM [falling, partial curve]"

SMILES,AC50 [1],AC50 [2]
Cc1cc(C(=O)Nc2cc(C)n(Cc3ccc(Cl)cc3)n2)no1,"35.5 µM [rising, single point]","35.5 µM [rising, single point]"
COc1ccc2c(c1)-c1c(ssc1=S)C(C)(C)N2C(=O)CSC1=NCCS1,"15.8 µM [rising, single point]",
CC(=O)N(c1ccc2oc(=O)sc2c1)S(=O)(=O)c1ccccc1,"14.1 µM [rising, single point]",
c1ccc(Nc2nc(-c3cccs3)cs2)nc1,"15.8 µM [rising, single point]","17.8 µM [rising, single point]"
CCOc1ccc(CN=C(N)N=C(N)N)cc1Cl,"11.2 µM [rising, single point]","7.94 µM [rising, partial curve, poor fit]"
CC(=O)c1ccc(NC(=S)N(Cc2ccccc2)C(C)C2CC2)cc1 (stereo not given),"1.26 µM [falling, full curve, poor fit]",
COc1cc(C(=O)NC(c2ccc(Cl)cc2)c2cc(Cl)c3cccnc3c2O)cc(OC)c1OC (stereo not given),"22.4 µM [falling, partial curve]",
Cn1c(=O)c2c(-c3ccccc3)n(-n3cnnc3)cc2n(C)c1=O,"12.6 µM [rising, single point]",
CCOC(=O)N1CCN(S(=O)(=O)c2ccc(C(=O)NNc3nc4ccc(Cl)cc4s3)cc2)CC1,"5.62 µM [rising, single point]","2.82 µM [falling, single point]"
CCCC(c1nnnn1CS(=O)(=O)c1ccc(C)cc1)N1CCN(CC)CC1 (stereo not given),,"2 µM [falling, partial curve, poor fit]"
Cc1cc(C)nc(NC(N)=NCCc2c[nH]c3ccccc23)n1,,"14.1 µM [falling, partial curve, poor fit]"
CN1Cc2cccc3c2C(Cc2ccccc2S3)C1 (stereo not given),"15.8 µM [rising, partial curve]","8.91 µM [rising, partial curve, poor fit]"
Cc1cccc(N2CCN(C(=O)CC(NC(=O)c3ccccc3)c3ccccc3)CC2C)c1 (stereo not given),"35.5 µM [rising, single point]",
Cc1c(C(=O)N2CCCCCC2)c(S(=O)(=O)N(Cc2ccccc2)C(C)(C)C)c(C)n1C,"0.00447 µM [falling, full curve, poor fit]",
CCCOc1ccc(OCCN2CCCC(C)C2)cc1 (stereo not given),"12.6 µM [rising, single point]","11.2 µM [rising, single point]"
Cc1cccc(N2CCN(C(=O)c3cc(C)oc3C)CC2C)c1 (stereo not given),"25.1 µM [rising, single point]","35.5 µM [rising, single point]"
COC(=O)C1=C(C(=O)OC)[C@@H]2N(C)c3ccc(OC)cc3[C@@]23C[C@@H](C(=O)OC)N(S(=O)(=O)c2ccc(C(F)(F)F)cc2)C3=N1,,"0.447 µM [rising, partial curve, poor fit]"
COc1cccc(Nc2ncc3nc(C)c(=O)n(-c4ccccc4)c3n2)c1,,"12.6 µM [falling, partial curve]"
CS(=O)(=O)N1N=C(c2cccs2)CC1c1ccccc1O (stereo not given),"1.58 µM [falling, full curve, poor fit]","0.794 µM [falling, full curve, poor fit]"
Cc1ccc(N(C)C(=O)c2cc(S(=O)(=O)N3CCOCC3)cn2C)cc1,"0.0708 µM [falling, full curve, poor fit]","10 µM [falling, partial curve, poor fit]"
Cc1cc(NC(=O)CSc2nnc(-c3ccc(Br)o3)n2Cc2ccccc2)no1,,"20 µM [rising, single point]"
COc1ccc(NC(=O)CSc2nc(N)c3cc4c(nc3n2)CCCC4)cc1,"10 µM [rising, partial curve, poor fit]",
CCOC(=O)N1CCC(NC(=O)c2cc3sccc3n2CC)CC1,"35.5 µM [rising, single point]","20 µM [rising, partial curve, poor fit]"
Cc1ccc(/C=C(\C#N)c2nn(-c3ccccc3)c(N)c2C#N)cc1,"20 µM [rising, single point]",
CCOc1ccc(NC(=S)Nc2cc(C)[nH]n2)cc1,"3.98 µM [rising, single point]","5.62 µM [rising, partial curve]"
COc1ccccc1N1CCN(C(=O)c2ccc(Cl)c(S(=O)(=O)NCc3ccco3)c2)CC1,"35.5 µM [rising, single point]","3.98 µM [falling, single point]"
Cc1cccc2[nH]c3c(N4CCN(C(=O)c5ccco5)CC4)ncnc3c12,"12.6 µM [rising, single point]",
